“And” between values parts separate entries of the source, which are not always exact repeats. Identical values can stand only once. This continues a long series; more values of the same kind are listed elsewhere.
How the values were obtained:
[1] = Daily renal clearance rate (Clrenal) and serum-to-urine ratio from paired serum and urine; assay type: in vivo, human; details: individual workers
From the text: The positive correlations between the PFAAs in the serum and the paired urine samples were highly statistically significant, with correlation coefficients of 0.87, 0.64, and 0.72 for PFHxS, PFOA, and PFOS, respectively, (p < 0.01). […] Additionally, the relative abundances of PFOS, PFHxS, and PFOA between the serum and paired urine samples were quite different. The relative abundances in the serum are 64%, 24%, and 12%, respectively, while those in the urine were 19%, 31%, and 40%, respectively. […] Moreover, the ratio of serum-to-urine concentrations (S/U) might be an indicator for PFAA excretion in humans because PFAAs could concentrate in serum while urine excretion is considered an important PFAA elimination pathway. The GM values of S/U for PFHxS, PFOA, and PFOS in all samples were 697, 288, and 1782, respectively, indicating the difficulty in PFAA renal elimination from the workers. To exclude the potential effect of individual differences related to demographic information such as body weight and gender, the daily renal clearance rate (Clrenal) was introduced in the study. Clrenal is a parameter defined in Eq (3) that adjusts the S/U through body weight and the gender-specific daily urine excretion volume.
Paired samples with either concentration under the LOD were set as LOD/2 in the Clrenal study. The urine excretion volumes of males and females were set at 1.4 and 1.2 L/day in the study, respectively, and the body weight values of individual workers were obtained from our questionnaires. The calculated Clrenal values for PFHxS, PFOA, PFOS ranged from 2.0 × 10^−4 to 2.3, 9.0 × 10^−5 to 2.4, and 5.0 × 10^−5 to 0.54 mL day^−1 kg^−1 with GM values of 0.023, 0.067 and 0.010 mL day^−1 kg^−1, respectively (Fig. 3). The minimum values of the PFAAs Clrenal were calculated on the basis of LOD/2 instead of ND (not detected) in the present study. […] However, Zhang et al. observed that the Clrenal of PFHxS was the lowest among these 3 type of PFAAs[28]. The median Clrenal of PFAAs in the present study was similar to that of Zhou et al.’s study (0.012 mL day^−1 kg^−1 for PFHxS, 0.061 mL day^−1 kg^−1 for PFOA, and 0.010 mL day^−1 kg^−1 for PFOS)[39]. In contrast, as noted elsewhere, the Clrenal values of PFOA were the highest among those of the three PFAAs[28][38]. The most recent study on the elevated serum concentrations of PFAAs in fishery employees from Tangxun Lake also stated that the median Clrenal of PFOA (0.061 mL day^−1 kg^−1) was higher than those of the PFHxS and PFOS (0.012 and 0.010 mL day^−1 kg^−1)[39]. […] Moreover, the renal clearance rates of PFAAs in humans were not obviously influenced by the PFAAs level in the serum. […] In addition, gender could not be discounted. […]

[2] = PFAA concentration in serum of occupational workers (HPLC-ESI/MS/MS); assay type: in vivo, human; set-up: unit: ng/mL
Procedure: (§1) The selected fluorochemical plant (Henxin Chemical Plant) in this study is one of the largest producers of PFOS-related chemicals in China and is located in Yingcheng, Hubei province. Perfluoroalkyl sulfonic acids (PFSAs) and perfluorotertiary amines are synthesized through an electro-chemical fluorination (ECF) process. We collected paired serum and urine samples from the occupational workers in the plant for five consecutive years, and the sampling activities were carried out in Nov. 2008, Nov. 2009, Nov. 2010, Dec. 2011, and Dec 2012, respectively. The Medical Research Ethics Committee, School of Medicine, Jianghan University, approved the ethics of this study, and all methods were performed in accordance with the relevant guidelines and regulations, moreover, all volunteers gave written informed consent. Demographic information of the donors, including gender, age, length of service, and work assignment, was collected with a questionnaire (Table S1). The sampled population included a total of 302 occupational workers, of which there were 89 female and 213 male participants. In total, 302 serum and 274 urine samples were collected.
(§2) The participants were told not to eat breakfast before the sampling, and morning urine samples and blood samples were collected. Serum was separated from the blood by centrifugation at 1100 × g at 4 °C for 10 min and then placed on ice. Serum samples were then transferred to our laboratory on the same day and stored in polypropylene containers at −20 °C until analysis.
All pre-treatment methods and instrument analysis of PFAAs in serum and urine samples are based on previous studies with minor modifications (see Supplementary Information)[3][31]. Based on the PFAA profiles in environmental matrices around the same plant in our previous study, only 3 main PFAAs, PFHxS, PFOA, and PFOS, were analyzed in the obtained serum and urine samples. Instrumental analysis of the PFAAs was performed by a HPLC-ESI/MS/MS system (HPLC: Waters 2695, MS: Waters Quattro Premier XE). […]

[3] = cited from earlier work
[4] = PFAA concentration in morning urine of occupational workers (HPLC-ESI/MS/MS); assay type: in vivo, human
Procedure: as §1, §2
All pre-treatment methods and instrument analysis of PFAAs in serum and urine samples are based on previous studies with minor modifications (see Supplementary Information)[3][31]. Based on the PFAA profiles in environmental matrices around the same plant in our previous study, only 3 main PFAAs, PFHxS, PFOA, and PFOS, were analyzed in the obtained serum and urine samples. Instrumental analysis of the PFAAs was performed by a HPLC-ESI/MS/MS system (HPLC: Waters 2695, MS: Waters Quattro Premier XE). The limits of detection (LODs) of PFHxS, PFOA, and PFOS were 0.020, 0.063, and 0.018 ng mL^−1 for serum samples and 0.008, 0.025, and 0.007 ng mL^−1 for urine samples, respectively. A procedural blank was performed for every batch of seven samples, and all of the blank levels were below the LODs. […] Details of quality assurance and quality control of the chemical analysis can be found in the Supplementary Information.
Urine samples were pretreated by solid phase extraction. Briefly, 1 mL of urine spiked with 5 ng of internal standard was added to a 15 - mL PP tube and diluted with 13 mL water. The solid phase extraction procedure was then performed following the previously described serum extraction procedure.

## O=C(O)C(F)(F)C(F)(F)C(F)(F)C(F)(F)C(F)(F)C(F)(F)C(F)(F)F [PFOA, perfluorooctanoic acid]
[1]; sampling year 2008
  Renal clearance rate (PFOA): 0.091 mL/day/kg and 0.123 mL/day/kg and 0.108 mL/day/kg
[1]; sampling year 2009
  Renal clearance rate (PFOA): 0.587 mL/day/kg and 0.257 mL/day/kg and 0.139 mL/day/kg
[1]; sampling year 2011
  Renal clearance rate (PFOA): 0.183 mL/day/kg and 0.392 mL/day/kg and 0.196 mL/day/kg and 0.086 mL/day/kg
[1]; sampling year 2012
  Renal clearance rate (PFOA): 0.079 mL/day/kg and 0.063 mL/day/kg and 0.109 mL/day/kg and 0.097 mL/day/kg
[2]; Electrolytic Department, length of service 1-3 years
  Serum PFAA level: 918
[2]; Electrolytic Department, length of service >3 years
  Serum PFAA level: 1160
[2]; Research Building, length of service < 1 year
  Serum PFAA level: 22
[3]
  Clrenal values obtained from different sources, range: 0.01 to 0.1 mL/day/kg
[3]; fishery employees from Tangxun Lake
  Clrenal, median: 0.061 mL/day/kg

## O=S(=O)(O)C(F)(F)C(F)(F)C(F)(F)C(F)(F)C(F)(F)C(F)(F)C(F)(F)C(F)(F)F [PFOS, perfluorooctanesulfonate]
[4]; sampling year 2008, individual workers
  Urine PFOS concentration: 1.42 ng/mL and 2.15 ng/mL and 26.9 ng/mL and 0.877 ng/mL and 4.86 ng/mL
[4]; sampling year 2009, individual workers
  Urine PFOS concentration: 0.683 ng/mL and 0.951 ng/mL and 0.498 ng/mL and 1.27 ng/mL and 2.77 ng/mL and 0.57 ng/mL and 0.314 ng/mL and 0.504 ng/mL
[4]; sampling year 2010, individual workers
  Urine PFOS concentration: 6 ng/mL and 0.418 ng/mL and 6.9 ng/mL and 1.17 ng/mL and 6.54 ng/mL and 0.416 ng/mL and 0.864 ng/mL and 0.395 ng/mL and 0.971 ng/mL
[4]; sampling year 2011, individual workers
  Urine PFOS concentration: 2.80 ng/mL and 0.80 ng/mL and 0.48 ng/mL and 0.64 ng/mL and 5.37 ng/mL and 3.45 ng/mL and 0.25 ng/mL and 0.21 ng/mL
[4]; sampling year 2012, individual workers
  Urine PFOS concentration: 1.1 ng/mL and 0.98 ng/mL and 0.38 ng/mL and 4.54 ng/mL and 0.28 ng/mL and 0.86 ng/mL and 0.4 ng/mL
